Source: PMC5503512, “The complex of TRIP-Br1 and XIAP ubiquitinates and degrades multiple adenylyl cyclase isoforms” (eLife, 2017)
Results are given in words; binding and its absence hold for the method and conditions named. Binding seen in cells or lysates may run through a third protein. Some binding calls cover weakened binding; strength is not graded here. For some assays here: Tags and fused reporters may be left off the sequences shown.

Protein sequences, listed by entry. Tags and fused reporters are not part of them. Lines headed by an entry give the natural chain unless they say otherwise; changes in a name come on top.
UniProt P26769: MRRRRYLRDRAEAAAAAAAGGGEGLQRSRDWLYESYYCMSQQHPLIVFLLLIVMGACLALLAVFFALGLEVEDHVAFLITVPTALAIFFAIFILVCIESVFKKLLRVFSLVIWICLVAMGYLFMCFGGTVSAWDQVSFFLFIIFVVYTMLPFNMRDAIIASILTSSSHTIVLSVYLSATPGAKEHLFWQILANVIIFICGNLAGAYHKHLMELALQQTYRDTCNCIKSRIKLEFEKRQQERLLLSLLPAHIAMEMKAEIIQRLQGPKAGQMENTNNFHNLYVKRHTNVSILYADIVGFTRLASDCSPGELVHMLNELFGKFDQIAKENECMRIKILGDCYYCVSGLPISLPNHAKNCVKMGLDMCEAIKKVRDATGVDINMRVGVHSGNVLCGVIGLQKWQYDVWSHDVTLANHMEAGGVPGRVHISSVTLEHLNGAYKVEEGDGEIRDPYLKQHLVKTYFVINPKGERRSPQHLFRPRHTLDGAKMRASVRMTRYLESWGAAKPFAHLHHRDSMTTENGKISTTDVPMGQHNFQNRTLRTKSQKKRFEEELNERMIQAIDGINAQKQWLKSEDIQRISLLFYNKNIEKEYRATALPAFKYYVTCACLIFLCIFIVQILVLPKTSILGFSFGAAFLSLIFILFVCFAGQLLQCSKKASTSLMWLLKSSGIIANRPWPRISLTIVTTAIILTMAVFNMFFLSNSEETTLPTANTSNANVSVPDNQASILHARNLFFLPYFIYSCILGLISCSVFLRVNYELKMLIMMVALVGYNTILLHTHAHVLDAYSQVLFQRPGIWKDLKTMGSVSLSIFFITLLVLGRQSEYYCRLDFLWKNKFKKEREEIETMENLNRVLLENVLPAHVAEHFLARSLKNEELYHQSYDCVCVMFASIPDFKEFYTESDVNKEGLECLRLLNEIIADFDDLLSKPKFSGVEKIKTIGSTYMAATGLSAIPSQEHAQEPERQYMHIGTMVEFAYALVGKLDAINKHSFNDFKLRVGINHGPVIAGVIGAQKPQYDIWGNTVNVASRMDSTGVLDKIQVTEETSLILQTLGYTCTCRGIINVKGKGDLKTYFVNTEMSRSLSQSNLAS
UniProt P19754: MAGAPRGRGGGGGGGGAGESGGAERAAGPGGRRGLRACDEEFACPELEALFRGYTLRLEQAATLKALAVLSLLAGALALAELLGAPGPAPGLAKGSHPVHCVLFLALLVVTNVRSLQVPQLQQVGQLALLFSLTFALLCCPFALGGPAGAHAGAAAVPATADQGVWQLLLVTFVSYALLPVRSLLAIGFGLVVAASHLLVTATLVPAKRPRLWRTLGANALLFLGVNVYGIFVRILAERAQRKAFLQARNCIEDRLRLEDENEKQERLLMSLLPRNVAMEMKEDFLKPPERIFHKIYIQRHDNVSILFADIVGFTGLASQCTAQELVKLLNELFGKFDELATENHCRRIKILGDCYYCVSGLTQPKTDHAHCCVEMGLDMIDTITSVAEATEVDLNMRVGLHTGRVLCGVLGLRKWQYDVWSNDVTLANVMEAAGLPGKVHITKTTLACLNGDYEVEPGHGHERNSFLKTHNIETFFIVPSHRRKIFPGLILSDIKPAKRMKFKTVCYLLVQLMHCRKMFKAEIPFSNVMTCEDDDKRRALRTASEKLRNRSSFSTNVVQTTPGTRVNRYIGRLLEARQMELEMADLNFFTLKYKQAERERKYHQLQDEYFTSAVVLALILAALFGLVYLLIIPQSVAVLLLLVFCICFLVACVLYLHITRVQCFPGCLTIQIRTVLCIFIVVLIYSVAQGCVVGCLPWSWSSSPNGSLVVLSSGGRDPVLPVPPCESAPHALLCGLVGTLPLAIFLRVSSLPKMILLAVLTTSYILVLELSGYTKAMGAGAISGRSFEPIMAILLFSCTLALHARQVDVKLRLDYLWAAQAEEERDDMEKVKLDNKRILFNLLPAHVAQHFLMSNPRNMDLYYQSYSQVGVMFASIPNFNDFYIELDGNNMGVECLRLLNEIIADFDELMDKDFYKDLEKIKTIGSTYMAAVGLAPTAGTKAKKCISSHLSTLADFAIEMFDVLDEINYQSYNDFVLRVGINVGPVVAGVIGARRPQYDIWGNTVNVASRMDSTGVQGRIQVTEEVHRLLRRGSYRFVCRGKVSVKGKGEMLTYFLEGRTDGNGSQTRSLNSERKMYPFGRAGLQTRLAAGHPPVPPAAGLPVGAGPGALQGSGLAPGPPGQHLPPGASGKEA
UniProt P40146: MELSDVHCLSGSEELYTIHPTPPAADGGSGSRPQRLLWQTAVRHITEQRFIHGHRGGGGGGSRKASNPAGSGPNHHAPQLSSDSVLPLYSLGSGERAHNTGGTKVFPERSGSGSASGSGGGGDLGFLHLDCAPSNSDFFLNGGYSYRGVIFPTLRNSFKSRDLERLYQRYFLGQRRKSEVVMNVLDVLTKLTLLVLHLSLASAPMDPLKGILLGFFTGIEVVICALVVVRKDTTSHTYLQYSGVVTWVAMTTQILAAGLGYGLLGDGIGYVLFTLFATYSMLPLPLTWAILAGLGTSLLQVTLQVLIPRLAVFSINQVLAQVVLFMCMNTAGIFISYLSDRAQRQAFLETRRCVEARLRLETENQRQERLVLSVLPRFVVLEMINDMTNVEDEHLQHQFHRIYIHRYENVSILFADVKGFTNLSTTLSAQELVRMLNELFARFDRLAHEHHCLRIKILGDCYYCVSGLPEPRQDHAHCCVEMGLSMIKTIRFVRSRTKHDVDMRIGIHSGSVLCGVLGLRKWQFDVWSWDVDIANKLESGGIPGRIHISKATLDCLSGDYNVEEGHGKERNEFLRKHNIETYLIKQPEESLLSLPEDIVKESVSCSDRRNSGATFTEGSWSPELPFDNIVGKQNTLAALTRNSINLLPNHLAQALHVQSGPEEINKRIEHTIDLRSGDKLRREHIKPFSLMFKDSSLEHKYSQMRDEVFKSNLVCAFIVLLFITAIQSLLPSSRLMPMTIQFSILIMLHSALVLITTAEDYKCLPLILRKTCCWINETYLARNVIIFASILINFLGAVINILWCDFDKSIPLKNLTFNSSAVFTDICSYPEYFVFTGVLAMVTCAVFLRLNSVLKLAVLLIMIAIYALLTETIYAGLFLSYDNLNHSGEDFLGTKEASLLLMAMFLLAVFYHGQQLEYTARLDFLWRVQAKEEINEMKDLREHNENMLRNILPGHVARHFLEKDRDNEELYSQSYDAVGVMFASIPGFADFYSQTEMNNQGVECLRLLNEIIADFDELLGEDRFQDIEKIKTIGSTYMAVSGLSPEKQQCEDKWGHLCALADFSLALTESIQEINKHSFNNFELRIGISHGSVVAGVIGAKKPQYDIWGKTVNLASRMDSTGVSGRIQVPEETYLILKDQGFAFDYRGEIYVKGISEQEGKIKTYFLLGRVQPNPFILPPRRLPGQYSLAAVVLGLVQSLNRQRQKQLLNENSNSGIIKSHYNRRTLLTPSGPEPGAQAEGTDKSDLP
UniProt P40144: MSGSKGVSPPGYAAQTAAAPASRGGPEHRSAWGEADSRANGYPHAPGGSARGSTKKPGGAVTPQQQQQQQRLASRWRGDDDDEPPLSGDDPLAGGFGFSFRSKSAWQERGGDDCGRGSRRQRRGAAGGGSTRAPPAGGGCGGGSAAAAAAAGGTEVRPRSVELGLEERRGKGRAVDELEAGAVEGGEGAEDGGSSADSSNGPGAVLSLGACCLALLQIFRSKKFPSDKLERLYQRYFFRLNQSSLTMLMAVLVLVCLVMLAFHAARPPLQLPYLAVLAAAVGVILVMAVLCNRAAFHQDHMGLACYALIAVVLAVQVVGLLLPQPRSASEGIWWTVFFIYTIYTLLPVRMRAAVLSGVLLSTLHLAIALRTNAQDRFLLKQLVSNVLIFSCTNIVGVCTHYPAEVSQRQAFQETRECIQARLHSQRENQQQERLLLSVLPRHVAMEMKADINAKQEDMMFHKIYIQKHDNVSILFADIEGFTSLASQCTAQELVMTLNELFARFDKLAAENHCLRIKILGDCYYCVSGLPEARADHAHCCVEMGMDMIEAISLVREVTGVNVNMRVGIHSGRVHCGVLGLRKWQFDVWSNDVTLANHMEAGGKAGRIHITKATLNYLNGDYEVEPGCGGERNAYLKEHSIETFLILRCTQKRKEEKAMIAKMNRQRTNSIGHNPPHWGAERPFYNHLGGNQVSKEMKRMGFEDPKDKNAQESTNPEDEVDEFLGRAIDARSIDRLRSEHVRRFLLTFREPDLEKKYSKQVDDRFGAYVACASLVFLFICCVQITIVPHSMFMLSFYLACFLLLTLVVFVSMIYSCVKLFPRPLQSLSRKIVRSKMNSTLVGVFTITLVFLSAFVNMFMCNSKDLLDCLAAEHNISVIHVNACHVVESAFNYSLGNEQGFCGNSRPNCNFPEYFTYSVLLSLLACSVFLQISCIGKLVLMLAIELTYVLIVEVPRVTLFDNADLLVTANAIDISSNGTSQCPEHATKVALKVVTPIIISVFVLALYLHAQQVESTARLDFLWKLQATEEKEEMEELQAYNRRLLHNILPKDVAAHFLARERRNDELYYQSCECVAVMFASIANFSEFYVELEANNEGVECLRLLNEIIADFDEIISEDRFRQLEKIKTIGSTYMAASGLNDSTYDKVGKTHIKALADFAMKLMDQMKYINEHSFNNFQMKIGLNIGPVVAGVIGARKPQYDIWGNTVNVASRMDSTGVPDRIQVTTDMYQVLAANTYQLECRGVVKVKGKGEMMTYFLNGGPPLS
UniProt Q03343: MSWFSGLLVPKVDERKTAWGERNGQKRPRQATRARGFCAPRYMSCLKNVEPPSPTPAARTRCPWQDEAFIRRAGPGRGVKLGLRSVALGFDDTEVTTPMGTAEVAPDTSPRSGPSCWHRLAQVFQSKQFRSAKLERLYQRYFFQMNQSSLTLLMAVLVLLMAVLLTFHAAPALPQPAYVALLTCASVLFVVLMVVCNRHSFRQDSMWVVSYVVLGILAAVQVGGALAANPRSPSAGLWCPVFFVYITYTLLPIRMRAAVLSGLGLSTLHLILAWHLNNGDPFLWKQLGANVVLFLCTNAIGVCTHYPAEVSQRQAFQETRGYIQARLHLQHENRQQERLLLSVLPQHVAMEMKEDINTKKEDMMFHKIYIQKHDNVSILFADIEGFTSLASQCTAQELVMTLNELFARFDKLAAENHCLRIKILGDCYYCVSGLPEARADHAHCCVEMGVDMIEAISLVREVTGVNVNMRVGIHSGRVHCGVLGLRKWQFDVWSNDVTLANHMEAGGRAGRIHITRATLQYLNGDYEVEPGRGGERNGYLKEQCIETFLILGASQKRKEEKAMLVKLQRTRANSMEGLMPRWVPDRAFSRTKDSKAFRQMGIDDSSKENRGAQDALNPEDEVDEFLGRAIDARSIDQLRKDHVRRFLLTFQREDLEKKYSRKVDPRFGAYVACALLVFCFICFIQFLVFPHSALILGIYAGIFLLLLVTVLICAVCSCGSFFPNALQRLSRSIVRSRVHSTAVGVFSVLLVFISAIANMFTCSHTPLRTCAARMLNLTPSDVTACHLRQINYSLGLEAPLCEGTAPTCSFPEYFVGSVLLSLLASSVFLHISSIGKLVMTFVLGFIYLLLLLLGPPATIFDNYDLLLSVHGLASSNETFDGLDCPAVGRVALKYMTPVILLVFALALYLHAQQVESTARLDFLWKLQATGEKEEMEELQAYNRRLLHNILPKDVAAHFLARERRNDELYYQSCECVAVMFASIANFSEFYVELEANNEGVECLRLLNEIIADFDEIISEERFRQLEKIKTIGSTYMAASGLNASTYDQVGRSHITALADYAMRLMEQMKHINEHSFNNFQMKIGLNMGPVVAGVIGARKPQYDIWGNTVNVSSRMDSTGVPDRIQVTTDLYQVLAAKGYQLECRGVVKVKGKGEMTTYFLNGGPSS

T1: GST-TRIP-Br1 fusion protein (full-length TRIP-Br1 fused with GST) (human) (UniProt Q9UHV2)
T1 sequence: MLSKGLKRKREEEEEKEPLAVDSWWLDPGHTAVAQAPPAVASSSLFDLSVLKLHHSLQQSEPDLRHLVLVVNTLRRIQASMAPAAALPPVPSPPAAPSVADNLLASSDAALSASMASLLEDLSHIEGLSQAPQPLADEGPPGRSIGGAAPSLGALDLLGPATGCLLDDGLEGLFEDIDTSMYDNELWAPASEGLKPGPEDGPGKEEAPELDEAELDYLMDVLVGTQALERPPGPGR

B1: endogenous TRIP-Br1 in HeLa cells (protein, UniProt Q9UHV2 1-236)
chain: MLSKGLKRKREEEEEKEPLAVDSWWLDPGHTAVAQAPPAVASSSLFDLSVLKLHHSLQQSEPDLRHLVLVVNTLRRIQASMAPAAALPPVPSPPAAPSVADNLLASSDAALSASMASLLEDLSHIEGLSQAPQPLADEGPPGRSIGGAAPSLGALDLLGPATGCLLDDGLEGLFEDIDTSMYDNELWAPASEGLKPGPEDGPGKEEAPELDEAELDYLMDVLVGTQALERPPGPGR

Target: T1, GST-TRIP-Br1 fusion protein (full-length TRIP-Br1 fused with GST) (human)
Test: pull-down; GST or GST fusion proteins (5 μg) on glutathione-Sepharose beads, incubated overnight at 4°C with lysates of transfected HEK293T cells in Co-IP buffer; washed five times with Co-IP buffer plus 0.5% Triton X-100; western blot; only the target purified

binding, binds:
AC2 (adenylyl cyclase 2), HA-tagged (from UniProt P26769 1-1090) (enzyme)
HA-tagged AC1 (adenylyl cyclase 1) (from UniProt P19754 1-1134) (enzyme)
AC8 (adenylyl cyclase 8), HA-tagged (from UniProt P40146 1-1248) (enzyme)
AC5 (adenylyl cyclase 5), HA-tagged (from UniProt P40144 1-1264) (enzyme)
GFP-tagged AC1 catalytic domain 1b (C1b; aa 494-612) (from UniProt P19754 494-612) (domain or fragment)
AC6 (adenylyl cyclase 6), HA-tagged (from UniProt Q03343 1-1166) (enzyme)
AC4 (adenylyl cyclase 4), HA-tagged (from UniProt P26770 1-1064) (enzyme)

Target: endogenous AC1 (adenylyl cyclase 1) in HeLa cells (human (endogenous in HeLa)) (UniProt Q08828)
Test: co-IP; endogenous AC1 immunoprecipitated from HeLa whole-cell extracts with anti-AC1 antibody or control IgG; Protein A Sepharose beads washed 3 times with Co-IP lysis buffer plus 0.5% Triton X-100; immunoblot

binding, binds:
B1
